Test results from patent US8486381B2, “Methods of modulating intestinal fluid balance” (Amgen Inc., priority 2005, dated 2013).
Entries after “also recorded” stand apart in the source; their conditions may differ. For at least one compound, name, drawing or mass did not settle the structure.

System: proximal or distal colon segments
Type: cell-based, Sprague-Dawley rats

## C=C[C@@]1(C)CC(=O)[C@]2(O)[C@@]3(C)[C@@H](O)CCC(C)(C)[C@@H]3[C@H](O)[C@H](OC(C)=O)[C@@]2(C)O1 [forskolin]
  Short-circuit current (Isc): induced an increase in the negative Isc; also recorded: induced a increase in the negative Isc
